# Results of single-concentration screens

Mtb cholesterol medium: 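Whole-cell growth test on Mycobacterium tuberculosis, read after 4 days in a medium based on cholesterol and the lipid DPPC; the read-out is not stated. Compounds at 50 µM. Higher reads as more growth inhibition (inferred: compounds with an IC50 in retests scored well above the rest). About 69,000 compounds were tested under these conditions; 0.54% (about 370) showed 50% or more at least once.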
Mtb glucose medium: 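Growth of Mycobacterium tuberculosis over 3 days (7H9 medium with glucose and tyloxapol); the read-out is not stated. Tested at 50 µM. Direction is inferred from retests: higher values go with more growth inhibition. Size under these conditions: about 69,000 compounds, about 760 of them at 50% or above in at least one test.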

Values are the deposited “Percent Effect”, in %.
How 0% and 100% were set is not recorded. Most values in the screen are low, and negative values occur.
The compounds are a random part of those screened.
Two or more numbers in one place are separate tests of the same structure; such repeats can differ widely.

Result for Cl.O=C(CCn1c(C(F)(F)F)cc2cccnc21)N1CCOCC1 was Mtb cholesterol medium: 14.82%; Mtb glucose medium: 14.43%.
Result for O=C(COc1cccc(Br)c1)N1CCOCC1c1ncon1 (stereo not drawn) was Mtb cholesterol medium: -7.703%; Mtb glucose medium: 21.95%.
Result for COCCN(C)C[C@H]1C[C@H](CO)CN(C(=O)c2ccc(=O)n(C)c2)C1 was Mtb cholesterol medium: 22.8% & -9.14%; Mtb glucose medium: 27.98%.
Result for O=C(c1cc(Cl)c2c(c1)OCO2)N1CCCC(n2cncn2)C1 (stereo not drawn) was Mtb cholesterol medium: 8.762%; Mtb glucose medium: 29.38%.
Result for Cc1cnccc1CN(C)C(=O)C(C)(C)NC(=O)c1cccs1 was Mtb cholesterol medium: 7.759%; Mtb glucose medium: 7.992%.
Result for CCCN1CCCC2(CCN(S(=O)(=O)c3cccnc3)C2)C1=O (stereo not drawn) was Mtb cholesterol medium: -0.7199%; Mtb glucose medium: 12.32%.
Result for Cl.c1cnc(Nc2cc(CCC3CCCNC3)ccn2)cn1 (stereo not drawn) was Mtb cholesterol medium: -4.485%; Mtb glucose medium: -4.697%.
Result for O=C(O)C(F)(F)F.O=C(O)C(F)(F)F.[H][C@@]12CCCO[C@]1([H])[C@H](Oc1ncccc1F)CN2Cc1ccco1 was Mtb cholesterol medium: -16.12%; Mtb glucose medium: -4.05%.
Result for C[C@@H]1CN(C2CCN(c3ccccc3)CC2)CC[C@@]1(O)C1CCOCC1 was Mtb cholesterol medium: 10.01%; Mtb glucose medium: 33.37%.
Result for [H][C@]1([C@H](O)c2ccc(NC(=O)c3cccnc3)cc2)COCC(=O)N1 was Mtb cholesterol medium: 17.83%; Mtb glucose medium: 16.36% & 3.635%.
Result for CCN(Cc1nc2c(cnn2C)c(=O)[nH]1)Cc1ccco1 was Mtb cholesterol medium: 4.243%; Mtb glucose medium: 25.29%.
Result for Cc1ccc(CN2CCc3c(nnn3C)C2COCc2ccccc2)s1.O=C(O)C(F)(F)F (stereo not drawn) was Mtb cholesterol medium: -7.09% & 1.478%; Mtb glucose medium: -13.28%.
Result for O=C(c1ccc(Br)o1)N1CCCC(n2cncn2)C1 (stereo not drawn) was Mtb cholesterol medium: -20.14%; Mtb glucose medium: -8.527% & -16.12%.
Result for COCC(=O)Nc1cc(S(=O)(=O)C(F)(F)F)ccc1OC was Mtb cholesterol medium: 2.158%; Mtb glucose medium: 2.908% & -4.27%.
Result for CCOc1ccccc1C(=O)Nc1cccc(C[S+](C)[O-])c1C (stereo not drawn) was Mtb cholesterol medium: -5.875%; Mtb glucose medium: -25.99% & 1%.
Result for CC(NCc1ccc(F)cc1)c1ccc(OCC(=O)NC2CC2)cc1 (stereo not drawn) was Mtb cholesterol medium: -29.2%; Mtb glucose medium: -47.86%.
Result for CN(C)S(=O)(=O)N1CCC[C@]2(C[C@@H](Oc3ccccn3)CO2)C1.O=C(O)C(F)(F)F was Mtb cholesterol medium: 14.38%; Mtb glucose medium: 14.5%.
Result for [H][C@@]12CCN(C(=O)Cc3ccccc3F)C[C@]1(COC)CCO2 was Mtb cholesterol medium: -8.744%; Mtb glucose medium: 9.775%.
Result for O=C(C1CCOCC1)N1CCC2(CC1)CC(Oc1ccccc1)CO2 (stereo not drawn) was Mtb cholesterol medium: -20.24%; Mtb glucose medium: -18.51%.
Result for Cc1cc(N(C)C)nc(N2CC(n3cccn3)C2)n1 was Mtb cholesterol medium: 10.75%; Mtb glucose medium: 30.29%.
Result for CC(=O)Nc1cc(CN(C)C)ccc1C was Mtb cholesterol medium: 13.85%; Mtb glucose medium: 2.833%.
Result for CCN1CCN(C(C)(C)CNc2nc(C)cc(C3CCC3)n2)CC1 was Mtb cholesterol medium: -21.68%; Mtb glucose medium: -30.39%.
Result for Nc1nc2c(c(NCc3cnc4c(c3)CCC4)n1)CCNC2 was Mtb cholesterol medium: -3.118% & 0.05067%; Mtb glucose medium: -2.091%.
Result for COc1cc(C2SCC(=O)Nc3ccsc32)cc(OC)c1O (stereo not drawn) was Mtb cholesterol medium: 15.71% & 17.92%; Mtb glucose medium: 7.108%.
Result for Cc1ccc(N2CC3(CCN(C(=O)c4ccoc4)C3)C2)nn1 was Mtb cholesterol medium: -3.288%; Mtb glucose medium: 6.071%.
Result for CCn1ncc2c1C(COCC1CC1)CN(c1ccc(C)nn1)C2.O=C(O)C(F)(F)F.O=C(O)C(F)(F)F (stereo not drawn) was Mtb cholesterol medium: 31.7%; Mtb glucose medium: 42.02%.
Result for Cc1nn(C)c2c(N3CCN(C(=O)C(C)C)CC3)ncnc12 was Mtb cholesterol medium: -17.88%; Mtb glucose medium: 18.31%.
Result for Cc1ccc(NC(=O)C(C)n2ccc(C(F)(F)F)n2)nc1 (stereo not drawn) was Mtb cholesterol medium: 2.238%; Mtb glucose medium: 19.59%.
Result for COc1ccc(F)c(CN2CCCC3(CCN(C(=O)CSC)C3)C2)c1 (stereo not drawn) was Mtb cholesterol medium: 2.205%; Mtb glucose medium: 3.25% & -1.547%.
Result for O=C(O)C(F)(F)F.O=C(O)C(F)(F)F.[H][C@@]12CN(CCOC)CCO[C@]1([H])CN(Cc1ccc(C)s1)C2 was Mtb cholesterol medium: 24.11%; Mtb glucose medium: 7.742% & -1.634%.

For reference, 2 entries once more:

{"structure": "O=C(c1ccc(Br)o1)N1CCCC(n2cncn2)C1", "stereo": "stereo not drawn", "Mtb cholesterol medium": -20.14, "Mtb glucose medium": "-8.527 & -16.12"}
{"structure": "O=C(O)C(F)(F)F.O=C(O)C(F)(F)F.[H][C@@]12CCCO[C@]1([H])[C@H](Oc1ncccc1F)CN2Cc1ccco1", "Mtb cholesterol medium": -16.12, "Mtb glucose medium": -4.05}

From ChEMBL document CHEMBL3988442, “University of Dundee, Small-Polar-MMV Screening Library” (2021).